This is an account of results in PMC7891750.

Assay [1] addresses zebrafish mitochondrial antiviral signaling protein (MAVS), Flag-tagged (zebrafish). Description: co-IP; EPC cells co-transfected; lysates immunoprecipitated with anti-Flag affinity gel, immunoblot of the tagged partner. (In general: A western blot detects proteins with antibodies after separation by electrophoresis.)
For assay [2], the target named is zebrafish IFN regulatory factor 3 (IRF3), Flag-tagged (zebrafish). The description is as above.
The target of a further assay is TBK1-ΔN (zebrafish). Description: co-IP; HEK 293T cells co-transfected (5 μg each plasmid), 24 h; RIPA lysis buffer; anti-Flag or anti-Myc affinity gel overnight at 4°C; immunoblot.
For another assay, the target named is TBK1-ΔC (zebrafish). The assay is described as above.

No constants are given. Whether binding was seen depends on the method and setting. In cells and extracts the contact can be indirect. For some of these results: Binding can be weak; no strength is given. For some of these results: Sequences can lack the tags named with a protein.

B1: zebrafish transmembrane protein 33 (TMEM33), Myc-tagged (protein, UniProt A0A8M1PJV5 1-252)
chain: MADTEQRSPPPPPPPQAGAAQFLLSNKLETAMWLSRLFTVYCSIMFILPLLGPQAAANFYQRALLANALTSALRLHQRLPHFQLSRAFLAQALQEDSCHYLLYSLILVNSYPITMSIFPVFLFSLLHATTYTKKVLDTMGPNSLMFVRNFLNKLTSNQQNILKFIACNEIFLMPATVFMLFSGQGSLLQPFIYYRFLTLRYSSRRNPYCRTLFTELRILLEHFVMKPSCPVFFRRMCLNSIAFVSRLAPTGV
For B1, the binding entry in assay [1] and in assay [2] was “binds” throughout.

B2: zebrafish transmembrane protein 33 (TMEM33), full-length, in HEK 293T cells (protein, UniProt A0A8M1PJV5 1-252)
chain: B1 chain
Turning to B2, the binding result with TBK1-ΔN (zebrafish) was “no binding”; with TBK1-ΔC (zebrafish), “binds”.
